Source: PubChem BioAssay AID1259254 (NCATS, 2017)

- Aim: 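Finding genes that stop cells copying their DNA twice in one cycle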 (primary screen)
- Cell system: human HCT116 colorectal cancer cells
- Reagents: single siRNA against human genes
- Duration: 3 days
- Measurement: 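Nuclei stained with Hoechst and imaged; cell-cycle phase assigned by DNA content; G2 share scaled per plate, non-targeting siRNA 0%, GMNN siRNA 100%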
- Direction: G2 robust z-score and G2 cells, % of GMNN control: higher = more G2 cells, more excess DNA replication; raw share of cells in G2: higher = larger share of cells with G2 DNA content
- Active means: 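Active siRNAs have a G2 robust z of 5 or more median absolute deviations over the median, which in these data means about 38% or higher of GMNN control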
Here is a random part of about 59,000 reagents. In the full data, about 1,550 (2.6%) were called active. 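G2 share is only a proxy for re-replication; each gene was hit by three separate siRNAs, and active genes were retested.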 The raw values are shown without normalisation. Reagents against one gene are numbered here. Not given: the amount of reagent.

Target gene | reagent no. | G2 robust z-score | G2 cells, % of GMNN control | raw share of cells in G2 (%) | activity call
NME9 | 1 | 4.37 | 33.7 | 16.1 | inactive
NME9 | 2 | -0.522 | -0.704 | 4.94 | inactive
NME9 | 3 | 2.58 | 21.1 | 10.4 | inactive
MFN1 | 1 | 1.41 | 12.9 | 8.98 | inactive
MFN1 | 2 | 2.16 | 18.1 | 9.76 | inactive
MFN1 | 3 | -0.764 | -2.41 | 2.77 | inactive
FKBP9P1 | 1 | 0.479 | 6.34 | 7.43 | inactive
FKBP9P1 | 2 | -0.269 | 1.07 | 6.37 | inactive
FKBP9P1 | 3 | 0.851 | 8.96 | 7.55 | inactive
DCTN6 | 1 | -1.26 | -5.89 | 3.13 | inactive
DCTN6 | 2 | 3.22 | 25.6 | 12.1 | inactive
DCTN6 | 3 | 5.11 | 38.9 | 21.8 | active
RCBTB1 | 1 | -0.702 | -1.97 | 3.51 | inactive
RCBTB1 | 2 | 3.27 | 26 | 17.8 | inactive
RCBTB1 | 3 | -0.161 | 1.83 | 5.1 | inactive
DACH1 | 1 | -0.812 | -2.74 | 2.37 | inactive
DACH1 | 2 | 0.153 | 4.04 | 6.74 | inactive
DACH1 | 3 | 0.229 | 4.58 | 4.77 | inactive
IRF6 | 1 | 3.15 | 25.2 | 14.2 | inactive
IRF6 | 2 | 0.892 | 9.24 | 9.2 | inactive
IRF6 | 3 | 4.31 | 33.3 | 16.4 | inactive
SNX12 | 1 | 0.795 | 8.56 | 7.12 | inactive
SNX12 | 2 | -0.967 | -3.84 | 3.1 | inactive
SNX12 | 3 | 1.73 | 15.1 | 8.03 | inactive
CYTOR | 1 | 0.464 | 6.23 | 6.59 | inactive
CYTOR | 2 | 1.33 | 12.3 | 7 | inactive
CYTOR | 3 | -0.0113 | 2.89 | 2.66 | inactive
FBXO48 | 1 | 0.353 | 5.45 | 5.73 | inactive
FBXO48 | 2 | 0.0726 | 3.48 | 4.74 | inactive
FBXO48 | 3 | 1.99 | 17 | 8.89 | inactive
BIK | 1 | -1.31 | -6.25 | 2.59 | inactive
BIK | 2 | 0.804 | 8.62 | 8.14 | inactive
BIK | 3 | -0.786 | -2.57 | 3.04 | inactive
CROCCP3 | 1 | 0.704 | 7.92 | 6.07 | inactive
CROCCP3 | 2 | -0.77 | -2.45 | 3.13 | inactive
CROCCP3 | 3 | 0.887 | 9.2 | 6.33 | inactive
OR52A1 | 1 | 4.41 | 34 | 17.2 | inactive
OR52A1 | 2 | -0.718 | -2.08 | 3.04 | inactive
OR52A1 | 3 | -0.563 | -0.996 | 2.95 | inactive
SETBP1 | 1 | 0.0587 | 3.38 | 7.7 | inactive
SETBP1 | 2 | 3.95 | 30.8 | 14.4 | inactive
SETBP1 | 3 | -0.872 | -3.17 | 2.95 | inactive
PLAC8 | 1 | -0.824 | -2.83 | 2.59 | inactive
PLAC8 | 2 | 0.0628 | 3.41 | 5.71 | inactive
PLAC8 | 3 | 0.324 | 5.24 | 4.93 | inactive
SMG5 | 1 | -0.662 | -1.69 | 2.71 | inactive
SMG5 | 2 | -0.571 | -1.05 | 4.02 | inactive
SMG5 | 3 | -0.0848 | 2.37 | 4.97 | inactive
ATP6V0A1 | 1 | -0.225 | 1.39 | 4.51 | inactive
ATP6V0A1 | 2 | 1.9 | 16.3 | 10.3 | inactive
ATP6V0A1 | 3 | -0.503 | -0.571 | 4.87 | inactive
OR4C12 | 1 | 0.623 | 7.35 | 6.32 | inactive
OR4C12 | 2 | 2.62 | 21.4 | 11.3 | inactive
OR4C12 | 3 | -0.633 | -1.49 | 2.81 | inactive
ZNRF3 | 1 | 0.327 | 5.27 | 5.14 | inactive
ZNRF3 | 2 | -0.358 | 0.445 | 3.18 | inactive
ZNRF3 | 3 | 0.363 | 5.52 | 6.36 | inactive
LILRB1 | 1 | 0.704 | 7.92 | 9.14 | inactive
LILRB1 | 2 | 0.416 | 5.89 | 8.8 | inactive
LILRB1 | 3 | 0.982 | 9.88 | 7.04 | inactive
HPGD | 1 | 1.55 | 13.9 | 11 | inactive
HPGD | 2 | -0.759 | -2.37 | 4.18 | inactive
HPGD | 3 | -1.3 | -6.21 | 1.92 | inactive
MGP | 1 | 2.45 | 20.2 | 13.2 | inactive
MGP | 2 | 2.95 | 23.7 | 11 | inactive
MGP | 3 | 4.27 | 33 | 18.5 | inactive
CYP1A1 | 1 | -0.679 | -1.81 | 4.32 | inactive
CYP1A1 | 2 | -1.02 | -4.19 | 3.46 | inactive
CYP1A1 | 3 | -0.232 | 1.33 | 4.56 | inactive
